# No constants are given. Whether binding was seen depends on the method and setting. Some binding calls cover weakened binding; strength is not graded here.
# T1: DnaJ homolog subfamily C member 5 (DNAJC5), wild type (human), Q9H3Z4
# T1 chain: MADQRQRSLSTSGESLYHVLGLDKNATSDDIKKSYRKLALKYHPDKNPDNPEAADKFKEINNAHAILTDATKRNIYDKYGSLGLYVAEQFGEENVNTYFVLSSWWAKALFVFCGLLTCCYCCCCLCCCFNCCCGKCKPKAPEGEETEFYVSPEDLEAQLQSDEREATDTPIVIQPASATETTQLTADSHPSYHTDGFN
# T2: human DNAJC5 expressed in mouse mDA neurons (human), Q9H3Z4
# T2 chain: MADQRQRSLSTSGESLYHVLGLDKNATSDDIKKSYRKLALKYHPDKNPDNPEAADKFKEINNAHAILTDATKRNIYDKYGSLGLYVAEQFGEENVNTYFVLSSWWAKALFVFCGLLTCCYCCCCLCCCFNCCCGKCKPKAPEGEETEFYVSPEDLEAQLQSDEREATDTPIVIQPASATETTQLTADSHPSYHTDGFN
# Tests used:
# [1] = biological target: T1, DnaJ homolog subfamily C member 5 …; test: SEC; HEK293T cells transfected with DNAJC5 lysed, clarified and subjected to gel filtration; fractions by SDS-PAGE and DNAJC5 immunoblot; settings: remark: other sources report otherwise
# [2] = biological target: T1, DnaJ homolog subfamily C member 5 …; test: SDS-resistant oligomers on SDS-PAGE and immunoblot; conditioned medium of transfected HEK293T cells (supernatants of 1k, 10k, 100k x g for the wild type); anti-DNAJC5 or anti-FLAG immunoblot; settings: remark: other sources report otherwise
# [3] = biological target: T1, DnaJ homolog subfamily C member 5 …; test: SDS-resistant oligomers on SDS-PAGE and immunoblot; lysate of transfected HEK293T cells; anti-DNAJC5 or anti-FLAG immunoblot; loading samples with DTT up to 40 mM for the wild type; settings: remark: other sources report otherwise
# [4] = biological target: DNAJC5 ΔC20 (residues 179–198 deleted) (human) (UniProt Q9H3Z4); test: as above
# [5] = biological target: DNAJC5 ΔC20 (residues 179–198 deleted) (human) (UniProt Q9H3Z4); test: SDS-resistant oligomers on SDS-PAGE and immunoblot; conditioned medium of transfected HEK293T cells (supernatants of 1k, 10k, 100k x g for the wild type); anti-DNAJC5 or anti-FLAG immunoblot
# [6] = biological target: DNAJC5 ΔC30 (residues 169–198 deleted) (human) (UniProt Q9H3Z4); test: SDS-resistant oligomers on SDS-PAGE and immunoblot; lysate of transfected HEK293T cells; anti-DNAJC5 or anti-FLAG immunoblot; loading samples with DTT up to 40 mM for the wild type
# [7] = biological target: DNAJC5 ΔC30 (residues 169–198 deleted) (human) (UniProt Q9H3Z4); test: SDS-resistant oligomers on SDS-PAGE and immunoblot; conditioned medium of transfected HEK293T cells (supernatants of 1k, 10k, 100k x g for the wild type); anti-DNAJC5 or anti-FLAG immunoblot
# [8] = biological target: DNAJC5 ΔC40 (residues 151–198 deleted) (human) (UniProt Q9H3Z4); test: SDS-resistant oligomers on SDS-PAGE and immunoblot; lysate of transfected HEK293T cells; anti-DNAJC5 or anti-FLAG immunoblot; loading samples with DTT up to 40 mM for the wild type
# [9] = biological target: DNAJC5 ΔC40 (residues 151–198 deleted) (human) (UniProt Q9H3Z4); test: SDS-resistant oligomers on SDS-PAGE and immunoblot; conditioned medium of transfected HEK293T cells (supernatants of 1k, 10k, 100k x g for the wild type); anti-DNAJC5 or anti-FLAG immunoblot
# [10] = biological target: T2, human DNAJC5 expressed in mouse mDA …; test: SDS-resistant oligomers on SDS-PAGE and immunoblot; lysate of mouse mDA neurons (WT or expressing hDNAJC5) treated with DMSO or 100 nM BaFA1; immunoblot; settings: remark: other sources report otherwise
# [11] = biological target: DNAJC5 (ΔJ), J domain deleted (Δ14–82) (human) (UniProt Q9H3Z4); test: SDS-resistant oligomers on SDS-PAGE and immunoblot; lysate of transfected HEK293T cells; anti-DNAJC5 or anti-FLAG immunoblot; loading samples with DTT up to 40 mM for the wild type
# [12] = biological target: DNAJC5 ΔC10 (residues 189–198 deleted) (human) (UniProt Q9H3Z4); test: as above
# [13] = biological target: DNAJC5 ΔC10 (residues 189–198 deleted) (human) (UniProt Q9H3Z4); test: SDS-resistant oligomers on SDS-PAGE and immunoblot; conditioned medium of transfected HEK293T cells (supernatants of 1k, 10k, 100k x g for the wild type); anti-DNAJC5 or anti-FLAG immunoblot
binder,measurement,setting,value
"DnaJ homolog subfamily C member 5 (DNAJC5), wild type, Q9H3Z4-1 1-198 (protein, here or on the partner: palmitoylated (P-DNAJC5) and non-palmitoylated (NP-DNAJC5) forms both present; palmitoylated (P-DNAJC5) and non-palmitoylated (NP-DNAJC5) forms both present) MADQRQRSLSTSGESLYHVLGLDKNATSDDIKKSYRKLALKYHPDKNPDNPEAADKFKEINNAHAILTDATKRNIYDKYGSLGLYVAEQFGEENVNTYFVLSSWWAKALFVFCGLLTCCYCCCCLCCCFNCCCGKCKPKAPEGEETEFYVSPEDLEAQLQSDEREATDTPIVIQPASATETTQLTADSHPSYHTDGFN",binding,[1],binds
same,binding,[2],binds
same,binding,[3],binds
"DNAJC5 ΔC20 (residues 179–198 deleted) (domain or fragment, UniProt Q9H3Z4-1 1-178) MADQRQRSLSTSGESLYHVLGLDKNATSDDIKKSYRKLALKYHPDKNPDNPEAADKFKEINNAHAILTDATKRNIYDKYGSLGLYVAEQFGEENVNTYFVLSSWWAKALFVFCGLLTCCYCCCCLCCCFNCCCGKCKPKAPEGEETEFYVSPEDLEAQLQSDEREATDTPIVIQPASA",binding,[4],binds
same,binding,[5],binds
"DNAJC5 ΔC30 (residues 169–198 deleted) (domain or fragment, UniProt Q9H3Z4-1 1-168) MADQRQRSLSTSGESLYHVLGLDKNATSDDIKKSYRKLALKYHPDKNPDNPEAADKFKEINNAHAILTDATKRNIYDKYGSLGLYVAEQFGEENVNTYFVLSSWWAKALFVFCGLLTCCYCCCCLCCCFNCCCGKCKPKAPEGEETEFYVSPEDLEAQLQSDEREATD",binding,[6],binds
same,binding,[7],binds
"DNAJC5 ΔC40 (residues 151–198 deleted) (domain or fragment, UniProt Q9H3Z4-1 1-150) MADQRQRSLSTSGESLYHVLGLDKNATSDDIKKSYRKLALKYHPDKNPDNPEAADKFKEINNAHAILTDATKRNIYDKYGSLGLYVAEQFGEENVNTYFVLSSWWAKALFVFCGLLTCCYCCCCLCCCFNCCCGKCKPKAPEGEETEFYV",binding,[8],binds
same,binding,[9],binds
"human DNAJC5 expressed in mouse mDA neurons, Q9H3Z4-1 1-198 (protein) MADQRQRSLSTSGESLYHVLGLDKNATSDDIKKSYRKLALKYHPDKNPDNPEAADKFKEINNAHAILTDATKRNIYDKYGSLGLYVAEQFGEENVNTYFVLSSWWAKALFVFCGLLTCCYCCCCLCCCFNCCCGKCKPKAPEGEETEFYVSPEDLEAQLQSDEREATDTPIVIQPASATETTQLTADSHPSYHTDGFN",binding,[10],binds
"DNAJC5 (ΔJ), J domain deleted (Δ14–82) (protein, UniProt Q9H3Z4-1) MADQRQRSLSTSGGLYVAEQFGEENVNTYFVLSSWWAKALFVFCGLLTCCYCCCCLCCCFNCCCGKCKPKAPEGEETEFYVSPEDLEAQLQSDEREATDTPIVIQPASATETTQLTADSHPSYHTDGFN",binding,[11],binds
"DNAJC5 ΔC10 (residues 189–198 deleted) (domain or fragment, UniProt Q9H3Z4-1 1-188) MADQRQRSLSTSGESLYHVLGLDKNATSDDIKKSYRKLALKYHPDKNPDNPEAADKFKEINNAHAILTDATKRNIYDKYGSLGLYVAEQFGEENVNTYFVLSSWWAKALFVFCGLLTCCYCCCCLCCCFNCCCGKCKPKAPEGEETEFYVSPEDLEAQLQSDEREATDTPIVIQPASATETTQLTADS",binding,[12],binds
same,binding,[13],binds

# — paper PMC9876576
